Assay results published in US11766429B1, “Nicotinic receptor antagonists and pioglitazone as therapeutic agents for Covid-19” (priority 2020, dated 2023).
At least one structure is not confirmed: it was looked up by name or label, or the drawing left a doubt.

Tested on: mouse hepatitis virus strain 4 (MHV4)
Test: MHV4 replication in infected IMG cells (GFP expression, N gene qPCR)
Assay type: cell-based
Details: 1MOI MHV4, PG 5 μM, 48 hours

For `CCc1ccc(CCOc2ccc(CC3SC(=O)NC3=O)cc2)nc1` (stereo not shown) [pioglitazone], the GFP expression was “significantly reduced”.
